According to patent US20090098549:
Construct, isoform or probe ends are uncertain for at least one entry.

Chains of the proteins cited; added tags and fusions are not shown. Residues count along the entry.
UniProt P35968, 20-764: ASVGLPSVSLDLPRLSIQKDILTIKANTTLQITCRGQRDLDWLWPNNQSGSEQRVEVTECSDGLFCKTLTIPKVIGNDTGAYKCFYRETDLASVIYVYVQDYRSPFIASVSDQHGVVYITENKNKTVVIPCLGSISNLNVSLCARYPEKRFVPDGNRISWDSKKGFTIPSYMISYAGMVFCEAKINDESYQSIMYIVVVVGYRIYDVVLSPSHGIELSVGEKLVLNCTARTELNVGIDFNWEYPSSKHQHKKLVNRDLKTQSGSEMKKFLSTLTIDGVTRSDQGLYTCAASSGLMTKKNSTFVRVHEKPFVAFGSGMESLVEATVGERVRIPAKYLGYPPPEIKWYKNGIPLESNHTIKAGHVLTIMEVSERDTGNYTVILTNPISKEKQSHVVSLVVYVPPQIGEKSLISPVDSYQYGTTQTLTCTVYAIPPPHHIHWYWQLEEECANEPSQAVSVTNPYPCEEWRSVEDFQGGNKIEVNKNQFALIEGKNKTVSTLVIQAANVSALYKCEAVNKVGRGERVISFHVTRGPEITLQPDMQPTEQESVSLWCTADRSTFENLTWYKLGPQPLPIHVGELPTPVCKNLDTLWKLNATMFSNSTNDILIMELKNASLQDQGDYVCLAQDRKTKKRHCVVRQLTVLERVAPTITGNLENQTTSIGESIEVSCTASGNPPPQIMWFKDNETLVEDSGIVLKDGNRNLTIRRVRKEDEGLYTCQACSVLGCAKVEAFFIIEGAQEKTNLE

Target: VEGF-sR2 (VEGF soluble receptor 2) (UniProt P35968)
Test: binding assay
Conditions: T=BzdU; consecutive dC pairs replaced by BrdC in variants; photocrosslink to 100 nM protein tested for BrdC pair variants; purified recombinant protein; label: 32P; single-stranded DNA

## CCGTATGCCGCCGTCGGCGTTTTAAGACCTTAG [1546-23 (variable region)]
  binding result: binds
